Data from paper PMC5412012, “HS1BP3 negatively regulates autophagy by modulation of phosphatidic acid levels” (Nature Communications, 2016).

Amino acid sequences for entries named in this document (tags omitted). A change or cut given only in a name is not applied to a line headed by its entry.
UniProt Q14247: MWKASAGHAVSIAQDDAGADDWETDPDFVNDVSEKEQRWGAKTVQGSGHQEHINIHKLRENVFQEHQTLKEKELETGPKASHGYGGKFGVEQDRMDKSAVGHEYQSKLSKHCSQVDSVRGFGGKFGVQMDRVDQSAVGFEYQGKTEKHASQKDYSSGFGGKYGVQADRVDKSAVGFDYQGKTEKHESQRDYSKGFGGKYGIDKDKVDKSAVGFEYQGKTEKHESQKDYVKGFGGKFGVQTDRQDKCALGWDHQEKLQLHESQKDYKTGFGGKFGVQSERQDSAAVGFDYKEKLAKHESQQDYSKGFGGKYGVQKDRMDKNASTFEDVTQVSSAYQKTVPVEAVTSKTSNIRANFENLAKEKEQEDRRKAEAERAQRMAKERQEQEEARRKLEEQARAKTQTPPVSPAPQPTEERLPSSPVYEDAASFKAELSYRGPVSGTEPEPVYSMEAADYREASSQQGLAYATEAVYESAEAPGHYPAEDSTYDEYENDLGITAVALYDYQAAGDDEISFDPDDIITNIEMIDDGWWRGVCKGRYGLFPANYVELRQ

T1: HS1 SH3 domain (UniProt P14317)
T1 sequence: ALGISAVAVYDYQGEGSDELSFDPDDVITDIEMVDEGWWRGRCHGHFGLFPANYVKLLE

B1: HS1BP3 (construct of the SH3 domain interaction assay, Supplementary Fig. 3b) (protein, UniProt Q53T59 1-392)
chain: MQSPAVLVTSRRLQNAHTGLDLTVPQHQEVRGKMMSGHVEYQILVVTRLAAFKSAKHRPEDVVQFLVSKKYSEIEEFYQKLSSRYAAASLPPLPRKVLFVGESDIRERRAVFNEILRCVSKDAELAGSPELLEFLGTRSPGAAGLTSRDSSVLDGTDSQTGNDEEAFDFFEEQDQVAEEGPPVQSLKGEDAEESLEEEEALDPLGIMRSKKPKKHPKVAVKAKPSPRLTIFDEEVDPDEGLFGPGRKLSPQDPSEDVSSVDPLKLFDDPDLGGAIPLGDSLLLPAACESGGPTPSLSHRDASKELFRVEEDLDQILNLGAEPKPKPQLKPKPPVAAKPVIPRKPAVPPKAGPAEAVAGQQKPQEQIQAMDEMDILQYIQDHDTPAQAAPSLF

Columns and labels:
Assay in all cases: pull-down; taken to be the GST pull-down of the methods (glutathione sepharose, immunoblotting); whether with 1 ug recombinant GST- or MBP-tagged proteins in NETN buffer or from cell lysate is not told for this experiment
HS1 SH3 domain = target: T1, HS1 SH3 domain
[1] = target: cortactin SH3 domain, critical tryptophan mutated to tyrosine (UniProt Q14247)
[2] = target: HS1 SH3 domain, critical tryptophan mutated to tyrosine (UniProt P14317)

Row | Molecule | binding (HS1 SH3 domain) | binding [1] | binding [2]
1 | HS1BP3-ΔPX (human) (domain or fragment) | binds |  | 
2 | B1 |  | no binding | no binding

No constants are given. Whether binding was seen depends on the method and setting. In cells and extracts the contact can be indirect. For part of these data: Binding can be weak; no strength is given.
